Our source for the binding values is publication PMC3672163.

Results are given in words; binding and its absence hold for the method and conditions named. In cells and extracts the contact can be indirect. Sequences can lack the tags named with a protein.

This assay addresses T1, HA-tagged MKlp1 (UniProt Q02241).
T1 sequence: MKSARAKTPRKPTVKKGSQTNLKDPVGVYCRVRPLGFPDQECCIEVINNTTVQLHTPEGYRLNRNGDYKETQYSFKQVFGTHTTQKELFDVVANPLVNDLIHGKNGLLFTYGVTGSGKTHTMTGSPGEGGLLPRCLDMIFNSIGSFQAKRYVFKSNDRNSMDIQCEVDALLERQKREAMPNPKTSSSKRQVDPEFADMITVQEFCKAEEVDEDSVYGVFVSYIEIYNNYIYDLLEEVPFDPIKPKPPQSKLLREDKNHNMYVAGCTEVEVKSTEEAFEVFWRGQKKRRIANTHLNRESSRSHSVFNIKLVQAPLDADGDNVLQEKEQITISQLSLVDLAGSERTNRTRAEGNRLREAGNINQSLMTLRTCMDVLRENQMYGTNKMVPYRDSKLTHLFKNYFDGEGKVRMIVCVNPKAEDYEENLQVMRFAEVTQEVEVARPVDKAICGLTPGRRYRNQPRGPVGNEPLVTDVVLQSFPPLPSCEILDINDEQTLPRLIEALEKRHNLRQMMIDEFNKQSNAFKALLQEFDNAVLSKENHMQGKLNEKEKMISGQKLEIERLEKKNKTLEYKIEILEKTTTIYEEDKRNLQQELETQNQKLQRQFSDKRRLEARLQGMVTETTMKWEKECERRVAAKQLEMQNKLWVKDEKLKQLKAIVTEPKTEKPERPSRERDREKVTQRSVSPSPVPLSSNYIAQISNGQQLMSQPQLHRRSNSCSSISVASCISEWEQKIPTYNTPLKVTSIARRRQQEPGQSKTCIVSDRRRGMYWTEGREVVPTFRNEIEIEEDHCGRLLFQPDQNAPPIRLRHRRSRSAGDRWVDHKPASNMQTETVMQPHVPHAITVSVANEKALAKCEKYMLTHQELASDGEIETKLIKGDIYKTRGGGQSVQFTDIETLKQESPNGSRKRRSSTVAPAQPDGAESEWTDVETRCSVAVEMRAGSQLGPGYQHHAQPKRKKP
Put plainly: co-IP; HeLa cells transfected for 24 h, 0.1% NP-40 cell lysis buffer; antibodies to HA, Myc or GFP with Protein G-Sepharose (Figure 2B-D).

“endogenous myosin-II (human (endogenous in HeLa))”: the binding entry is “no binding”.
